No constants are given. Whether binding was seen depends on the method and setting. Binding seen in cells or lysates may run through a third protein. Some results given as binding are weak or reduced against the parent protein; the word gives no strength.
Substrate: SON (human (endogenous in IMR90)) (UniProt P18583)
Test: co-IP

By UniProt entry, the sequences of proteins in these tests, tags left out.
UniProt P18583: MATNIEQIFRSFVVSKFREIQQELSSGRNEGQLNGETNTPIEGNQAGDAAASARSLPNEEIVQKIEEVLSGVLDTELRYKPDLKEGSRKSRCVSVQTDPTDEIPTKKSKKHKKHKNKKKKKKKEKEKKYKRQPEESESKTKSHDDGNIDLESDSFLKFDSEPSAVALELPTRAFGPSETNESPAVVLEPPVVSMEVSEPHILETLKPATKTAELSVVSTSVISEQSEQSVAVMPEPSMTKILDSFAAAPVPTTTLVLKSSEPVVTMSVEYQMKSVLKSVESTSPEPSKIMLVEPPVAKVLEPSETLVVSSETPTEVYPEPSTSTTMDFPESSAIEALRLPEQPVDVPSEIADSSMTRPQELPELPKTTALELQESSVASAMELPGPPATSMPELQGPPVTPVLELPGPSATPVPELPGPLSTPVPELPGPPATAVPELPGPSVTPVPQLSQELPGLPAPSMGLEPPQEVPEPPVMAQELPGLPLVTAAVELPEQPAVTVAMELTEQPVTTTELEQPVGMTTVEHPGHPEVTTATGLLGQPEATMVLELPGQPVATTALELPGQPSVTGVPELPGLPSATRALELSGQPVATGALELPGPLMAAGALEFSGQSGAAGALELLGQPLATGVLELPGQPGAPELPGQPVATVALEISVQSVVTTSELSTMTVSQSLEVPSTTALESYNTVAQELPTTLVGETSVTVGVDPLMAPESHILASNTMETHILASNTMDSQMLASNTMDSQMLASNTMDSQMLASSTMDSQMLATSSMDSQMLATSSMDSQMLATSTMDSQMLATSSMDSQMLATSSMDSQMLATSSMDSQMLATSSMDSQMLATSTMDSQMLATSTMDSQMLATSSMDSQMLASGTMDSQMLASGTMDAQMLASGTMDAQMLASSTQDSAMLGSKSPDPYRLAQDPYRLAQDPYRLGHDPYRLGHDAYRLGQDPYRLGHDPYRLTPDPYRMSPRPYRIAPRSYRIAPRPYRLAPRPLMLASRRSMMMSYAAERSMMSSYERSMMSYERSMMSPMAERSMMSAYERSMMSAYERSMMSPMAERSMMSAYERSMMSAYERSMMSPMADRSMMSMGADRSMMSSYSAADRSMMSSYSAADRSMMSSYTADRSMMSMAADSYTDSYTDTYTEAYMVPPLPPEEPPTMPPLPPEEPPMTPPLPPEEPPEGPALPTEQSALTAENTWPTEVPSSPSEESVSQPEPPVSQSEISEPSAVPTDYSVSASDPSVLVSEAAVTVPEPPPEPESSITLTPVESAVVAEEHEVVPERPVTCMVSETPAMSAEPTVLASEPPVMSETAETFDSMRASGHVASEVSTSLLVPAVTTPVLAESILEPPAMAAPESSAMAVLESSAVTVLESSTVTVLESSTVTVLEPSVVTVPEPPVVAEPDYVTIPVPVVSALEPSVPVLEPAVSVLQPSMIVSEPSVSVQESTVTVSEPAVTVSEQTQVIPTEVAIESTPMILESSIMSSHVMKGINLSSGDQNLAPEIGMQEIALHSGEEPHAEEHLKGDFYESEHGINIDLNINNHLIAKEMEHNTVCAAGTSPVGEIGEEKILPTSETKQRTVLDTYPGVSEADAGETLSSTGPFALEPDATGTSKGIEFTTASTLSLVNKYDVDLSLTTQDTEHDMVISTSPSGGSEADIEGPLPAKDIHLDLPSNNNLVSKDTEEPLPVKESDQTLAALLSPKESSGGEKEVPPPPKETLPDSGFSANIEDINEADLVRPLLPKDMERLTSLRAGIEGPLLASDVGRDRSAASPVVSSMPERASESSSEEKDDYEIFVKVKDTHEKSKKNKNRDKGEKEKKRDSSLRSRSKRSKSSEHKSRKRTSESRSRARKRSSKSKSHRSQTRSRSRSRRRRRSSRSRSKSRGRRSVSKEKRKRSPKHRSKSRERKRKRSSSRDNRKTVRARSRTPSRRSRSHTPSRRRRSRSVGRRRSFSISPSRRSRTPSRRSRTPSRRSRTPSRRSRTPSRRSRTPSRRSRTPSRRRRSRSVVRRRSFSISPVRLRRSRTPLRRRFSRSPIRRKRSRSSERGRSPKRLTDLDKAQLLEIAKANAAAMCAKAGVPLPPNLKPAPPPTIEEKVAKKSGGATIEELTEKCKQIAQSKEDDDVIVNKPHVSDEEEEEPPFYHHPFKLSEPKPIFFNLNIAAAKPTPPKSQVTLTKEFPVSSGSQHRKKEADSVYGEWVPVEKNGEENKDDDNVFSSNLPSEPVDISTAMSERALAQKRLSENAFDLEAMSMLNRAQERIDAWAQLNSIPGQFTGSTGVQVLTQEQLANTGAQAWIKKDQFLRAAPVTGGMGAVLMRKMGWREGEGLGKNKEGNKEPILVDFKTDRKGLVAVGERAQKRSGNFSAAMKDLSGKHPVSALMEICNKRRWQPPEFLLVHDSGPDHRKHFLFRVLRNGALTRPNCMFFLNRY

B1: CCCTC-binding insulator (CTCF) (protein, UniProt P49711 1-727)
chain: MEGDAVEAIVEESETFIKGKERKTYQRRREGGQEEDACHLPQNQTDGGEVVQDVNSSVQMVMMEQLDPTLLQMKTEVMEGTVAPEAEAAVDDTQIITLQVVNMEEQPINIGELQLVQVPVPVTVPVATTSVEELQGAYENEVSKEGLAESEPMICHTLPLPEGFQVVKVGANGEVETLEQGELPPQEDPSWQKDPDYQPPAKKTKKTKKSKLRYTEEGKDVDVSVYDFEEEQQEGLLSEVNAEKVVGNMKPPKPTKIKKKGVKKTFQCELCSYTCPRRSNLDRHMKSHTDERPHKCHLCGRAFRTVTLLRNHLNTHTGTRPHKCPDCDMAFVTSGELVRHRRYKHTHEKPFKCSMCDYASVEVSKLKRHIRSHTGERPFQCSLCSYASRDTYKLKRHMRTHSGEKPYECYICHARFTQSGTMKMHILQKHTENVAKFHCPHCDTVIARKSDLGVHLRKQHSYIEQGKKCRYCDAVFHERYALIQHQKSHKNEKRFKCDQCDYACRQERHMIMHKRTHTGEKPYACSHCDKTFRQKQLLDMHFKRYHDPNFVPAAFVCSKCGKTFTRRNTMARHADNCAGPDGVEGENGGETKKSKRGRKRKMRSKKEDSSDSENAEPDLDDNEDEEEPAVEIEPEPEPQPVTPAPPPAKKRRGRPPGRTNQPKQNQPTAIIQVEDQNTGAIENIIVEVKKEPDAEPAEGEEEEAQPAATDAPNGDLTPEMILSMMDR
- binding: binds

— doi:10.1101/2024.07.16.603680
